The list shows a part of the results. Residues, ends and D or L forms follow the SMILES beside them. *: point of attachment. Cbz = O=C(OCc1ccccc1)*
Assays:
Assay in all cases: log2 fold change, soluble protein after heating vs DMSO (PISA); higher = thermal stabilisation; K562 cells, 10 uM, 30 min; active = over 0.2 and 3.5 SD of the protein, either way, in both replicates (recomputed)
[1] = compound: C#Cc1cccc(Nc2ncnc3cc(OCCOC)c(OCCOC)cc23)c1 [erlotinib]
Method in brief: (§1)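 K562 cells at 2×10^6 cells/mL were given 10 μM compound for 30 min. Aliquots then went through 3 min of heating across 48°C-58°C, were pooled, and were extracted in PBS with 0.5% NP-40 at 4°C, and the supernatant after 21,000xg for 90 min was quantified by TMTpro 16plex LC-MS/MS with channel sums equalised. Thermal stability relative to control samples, from duplicates, is given as log2 fold change.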

Amino acid sequences for entries named in this document (tags omitted). A change or cut given only in a name is not applied to a line headed by its entry.
UniProt P55212: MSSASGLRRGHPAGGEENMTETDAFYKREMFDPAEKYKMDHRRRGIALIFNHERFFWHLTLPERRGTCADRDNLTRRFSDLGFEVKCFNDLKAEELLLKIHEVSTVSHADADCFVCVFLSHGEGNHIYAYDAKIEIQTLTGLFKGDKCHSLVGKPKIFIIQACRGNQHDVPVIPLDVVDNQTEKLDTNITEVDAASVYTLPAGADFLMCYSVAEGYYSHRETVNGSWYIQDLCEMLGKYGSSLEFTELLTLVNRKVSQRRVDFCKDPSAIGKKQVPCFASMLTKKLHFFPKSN
UniProt O15446, whole entry, looked up: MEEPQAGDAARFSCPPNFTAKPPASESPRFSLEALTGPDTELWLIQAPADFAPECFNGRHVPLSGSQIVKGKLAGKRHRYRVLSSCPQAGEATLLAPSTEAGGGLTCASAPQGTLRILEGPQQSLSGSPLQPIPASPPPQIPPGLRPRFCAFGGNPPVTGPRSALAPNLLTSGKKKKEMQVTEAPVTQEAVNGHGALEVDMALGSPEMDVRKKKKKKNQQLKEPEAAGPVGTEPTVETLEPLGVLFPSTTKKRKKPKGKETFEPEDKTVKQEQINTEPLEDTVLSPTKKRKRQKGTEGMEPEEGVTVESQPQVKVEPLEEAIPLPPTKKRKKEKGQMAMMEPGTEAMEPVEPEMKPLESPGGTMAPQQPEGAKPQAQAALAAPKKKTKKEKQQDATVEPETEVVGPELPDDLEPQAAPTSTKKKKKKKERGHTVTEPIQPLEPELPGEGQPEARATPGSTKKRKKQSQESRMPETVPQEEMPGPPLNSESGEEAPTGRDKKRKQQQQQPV
UniProt O60826, whole entry, looked up: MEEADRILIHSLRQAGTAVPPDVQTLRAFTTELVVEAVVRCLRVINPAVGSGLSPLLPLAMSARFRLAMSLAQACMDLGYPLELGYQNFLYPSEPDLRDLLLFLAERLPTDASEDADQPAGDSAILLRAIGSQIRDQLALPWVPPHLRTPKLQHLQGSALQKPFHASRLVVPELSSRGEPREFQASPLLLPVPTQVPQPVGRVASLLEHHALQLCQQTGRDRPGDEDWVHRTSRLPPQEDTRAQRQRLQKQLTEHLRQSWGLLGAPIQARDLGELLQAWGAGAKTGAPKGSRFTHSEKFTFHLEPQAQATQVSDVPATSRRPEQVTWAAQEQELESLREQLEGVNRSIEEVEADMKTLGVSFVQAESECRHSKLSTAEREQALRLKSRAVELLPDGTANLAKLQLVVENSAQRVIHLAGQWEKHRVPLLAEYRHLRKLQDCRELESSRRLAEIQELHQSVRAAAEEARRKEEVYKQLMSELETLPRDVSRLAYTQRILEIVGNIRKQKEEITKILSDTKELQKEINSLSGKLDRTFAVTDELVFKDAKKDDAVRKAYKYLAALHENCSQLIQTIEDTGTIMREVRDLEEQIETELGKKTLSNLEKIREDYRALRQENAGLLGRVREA
UniProt Q6P1N0: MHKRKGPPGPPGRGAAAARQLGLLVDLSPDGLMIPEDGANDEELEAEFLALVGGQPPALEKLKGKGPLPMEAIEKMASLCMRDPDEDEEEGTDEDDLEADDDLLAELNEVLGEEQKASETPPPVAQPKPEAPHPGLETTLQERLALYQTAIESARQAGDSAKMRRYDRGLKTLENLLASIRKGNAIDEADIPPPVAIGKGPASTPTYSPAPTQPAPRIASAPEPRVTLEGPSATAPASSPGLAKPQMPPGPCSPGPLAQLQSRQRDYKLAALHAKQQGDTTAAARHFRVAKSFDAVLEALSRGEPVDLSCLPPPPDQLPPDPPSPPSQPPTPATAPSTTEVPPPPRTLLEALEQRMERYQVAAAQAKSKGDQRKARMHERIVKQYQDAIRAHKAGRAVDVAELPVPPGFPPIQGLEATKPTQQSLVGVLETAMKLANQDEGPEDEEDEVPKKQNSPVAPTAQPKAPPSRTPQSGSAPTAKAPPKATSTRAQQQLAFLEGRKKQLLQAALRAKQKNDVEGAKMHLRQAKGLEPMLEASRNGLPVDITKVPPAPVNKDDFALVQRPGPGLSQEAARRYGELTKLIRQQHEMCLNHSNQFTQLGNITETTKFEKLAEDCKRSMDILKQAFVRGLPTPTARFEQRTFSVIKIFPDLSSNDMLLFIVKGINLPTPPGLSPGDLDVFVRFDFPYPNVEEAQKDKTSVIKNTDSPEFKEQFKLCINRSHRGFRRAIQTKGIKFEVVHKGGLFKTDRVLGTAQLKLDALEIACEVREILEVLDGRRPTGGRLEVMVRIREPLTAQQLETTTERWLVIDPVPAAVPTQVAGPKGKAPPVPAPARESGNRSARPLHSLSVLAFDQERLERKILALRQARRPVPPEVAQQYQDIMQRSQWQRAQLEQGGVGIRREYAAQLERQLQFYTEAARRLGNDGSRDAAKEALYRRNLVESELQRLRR
UniProt Q8IWD4: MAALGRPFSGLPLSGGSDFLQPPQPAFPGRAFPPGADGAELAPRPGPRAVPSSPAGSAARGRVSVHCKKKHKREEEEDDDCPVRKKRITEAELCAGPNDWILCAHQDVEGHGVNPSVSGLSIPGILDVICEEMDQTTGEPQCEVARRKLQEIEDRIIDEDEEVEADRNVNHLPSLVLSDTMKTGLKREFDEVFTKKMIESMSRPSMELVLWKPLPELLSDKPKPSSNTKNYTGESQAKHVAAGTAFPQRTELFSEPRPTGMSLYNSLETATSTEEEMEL
UniProt P60953, whole entry, looked up: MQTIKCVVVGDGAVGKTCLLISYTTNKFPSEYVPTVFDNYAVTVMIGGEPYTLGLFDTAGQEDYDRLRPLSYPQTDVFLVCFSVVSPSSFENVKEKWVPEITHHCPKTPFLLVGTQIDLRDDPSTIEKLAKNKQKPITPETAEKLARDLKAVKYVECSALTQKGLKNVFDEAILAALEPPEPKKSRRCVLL
UniProt Q16543: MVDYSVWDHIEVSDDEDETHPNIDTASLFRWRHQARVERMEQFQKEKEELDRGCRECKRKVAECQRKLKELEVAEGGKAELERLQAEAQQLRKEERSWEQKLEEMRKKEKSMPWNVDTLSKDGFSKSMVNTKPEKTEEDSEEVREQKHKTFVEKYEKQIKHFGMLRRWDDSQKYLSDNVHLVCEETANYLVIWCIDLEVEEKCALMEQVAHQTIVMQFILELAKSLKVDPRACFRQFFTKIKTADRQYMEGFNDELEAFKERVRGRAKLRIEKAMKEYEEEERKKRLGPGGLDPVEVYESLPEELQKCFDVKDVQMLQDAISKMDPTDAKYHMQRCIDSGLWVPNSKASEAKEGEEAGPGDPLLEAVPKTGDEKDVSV
UniProt P13987: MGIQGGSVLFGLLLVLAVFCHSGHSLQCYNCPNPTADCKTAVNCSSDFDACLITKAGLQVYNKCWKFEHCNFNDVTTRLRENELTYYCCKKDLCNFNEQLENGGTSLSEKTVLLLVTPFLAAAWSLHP
UniProt Q3V6T2: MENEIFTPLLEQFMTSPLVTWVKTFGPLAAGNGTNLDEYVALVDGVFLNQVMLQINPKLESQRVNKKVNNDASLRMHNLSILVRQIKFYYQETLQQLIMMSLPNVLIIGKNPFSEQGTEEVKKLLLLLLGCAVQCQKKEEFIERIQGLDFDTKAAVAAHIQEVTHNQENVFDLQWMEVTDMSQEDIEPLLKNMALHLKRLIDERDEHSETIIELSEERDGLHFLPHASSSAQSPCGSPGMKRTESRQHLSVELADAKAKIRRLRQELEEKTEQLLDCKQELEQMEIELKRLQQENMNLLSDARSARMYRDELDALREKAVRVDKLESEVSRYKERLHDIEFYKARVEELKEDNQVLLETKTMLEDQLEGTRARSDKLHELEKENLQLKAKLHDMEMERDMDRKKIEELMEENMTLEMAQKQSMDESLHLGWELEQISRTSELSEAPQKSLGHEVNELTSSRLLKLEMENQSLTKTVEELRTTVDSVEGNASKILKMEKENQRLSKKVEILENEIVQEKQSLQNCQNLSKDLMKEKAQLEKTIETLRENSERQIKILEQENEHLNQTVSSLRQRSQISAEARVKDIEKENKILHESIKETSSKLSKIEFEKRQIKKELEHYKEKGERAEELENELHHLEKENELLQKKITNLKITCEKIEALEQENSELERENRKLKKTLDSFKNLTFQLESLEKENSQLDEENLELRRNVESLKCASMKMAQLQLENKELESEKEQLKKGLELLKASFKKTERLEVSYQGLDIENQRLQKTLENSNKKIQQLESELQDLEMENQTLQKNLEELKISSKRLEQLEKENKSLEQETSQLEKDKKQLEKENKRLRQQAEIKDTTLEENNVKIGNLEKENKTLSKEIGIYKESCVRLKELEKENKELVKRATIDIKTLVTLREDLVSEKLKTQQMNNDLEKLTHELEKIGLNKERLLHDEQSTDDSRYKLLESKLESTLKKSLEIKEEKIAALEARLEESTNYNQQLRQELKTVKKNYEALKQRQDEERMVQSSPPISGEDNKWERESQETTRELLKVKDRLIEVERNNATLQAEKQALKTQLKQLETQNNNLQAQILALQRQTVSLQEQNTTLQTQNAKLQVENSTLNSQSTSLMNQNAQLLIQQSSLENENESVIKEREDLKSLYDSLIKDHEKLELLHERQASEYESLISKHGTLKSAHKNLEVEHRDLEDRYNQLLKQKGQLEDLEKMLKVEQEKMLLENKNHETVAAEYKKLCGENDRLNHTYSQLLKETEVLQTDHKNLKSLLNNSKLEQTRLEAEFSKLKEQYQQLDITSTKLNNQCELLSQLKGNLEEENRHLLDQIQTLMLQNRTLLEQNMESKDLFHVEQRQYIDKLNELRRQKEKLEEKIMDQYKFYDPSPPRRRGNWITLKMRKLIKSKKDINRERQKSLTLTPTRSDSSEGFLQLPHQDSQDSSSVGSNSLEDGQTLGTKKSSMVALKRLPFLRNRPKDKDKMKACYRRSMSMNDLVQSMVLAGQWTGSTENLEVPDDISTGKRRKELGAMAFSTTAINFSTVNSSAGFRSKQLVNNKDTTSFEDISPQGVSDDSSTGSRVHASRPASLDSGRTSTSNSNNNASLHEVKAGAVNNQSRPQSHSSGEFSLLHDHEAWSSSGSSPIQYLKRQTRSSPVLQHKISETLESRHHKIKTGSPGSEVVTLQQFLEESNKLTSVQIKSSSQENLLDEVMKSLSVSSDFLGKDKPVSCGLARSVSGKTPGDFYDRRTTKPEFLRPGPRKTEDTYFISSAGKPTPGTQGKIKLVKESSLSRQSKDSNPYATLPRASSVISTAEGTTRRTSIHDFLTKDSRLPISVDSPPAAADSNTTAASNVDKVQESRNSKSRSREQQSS
UniProt P04040: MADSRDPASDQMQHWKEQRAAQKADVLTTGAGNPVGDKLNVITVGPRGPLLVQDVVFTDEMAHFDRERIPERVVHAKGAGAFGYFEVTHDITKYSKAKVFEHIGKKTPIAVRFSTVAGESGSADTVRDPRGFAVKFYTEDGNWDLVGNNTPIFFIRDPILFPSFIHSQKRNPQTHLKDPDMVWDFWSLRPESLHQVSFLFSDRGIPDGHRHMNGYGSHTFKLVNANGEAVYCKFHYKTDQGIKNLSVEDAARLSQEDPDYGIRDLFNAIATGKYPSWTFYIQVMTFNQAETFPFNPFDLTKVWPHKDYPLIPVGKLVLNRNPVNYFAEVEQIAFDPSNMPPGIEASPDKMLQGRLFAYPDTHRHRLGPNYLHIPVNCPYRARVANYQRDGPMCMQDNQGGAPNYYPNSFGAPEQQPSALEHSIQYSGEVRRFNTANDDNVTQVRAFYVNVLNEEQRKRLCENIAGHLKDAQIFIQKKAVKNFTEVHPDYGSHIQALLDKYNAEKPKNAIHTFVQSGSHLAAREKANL
UniProt P50991: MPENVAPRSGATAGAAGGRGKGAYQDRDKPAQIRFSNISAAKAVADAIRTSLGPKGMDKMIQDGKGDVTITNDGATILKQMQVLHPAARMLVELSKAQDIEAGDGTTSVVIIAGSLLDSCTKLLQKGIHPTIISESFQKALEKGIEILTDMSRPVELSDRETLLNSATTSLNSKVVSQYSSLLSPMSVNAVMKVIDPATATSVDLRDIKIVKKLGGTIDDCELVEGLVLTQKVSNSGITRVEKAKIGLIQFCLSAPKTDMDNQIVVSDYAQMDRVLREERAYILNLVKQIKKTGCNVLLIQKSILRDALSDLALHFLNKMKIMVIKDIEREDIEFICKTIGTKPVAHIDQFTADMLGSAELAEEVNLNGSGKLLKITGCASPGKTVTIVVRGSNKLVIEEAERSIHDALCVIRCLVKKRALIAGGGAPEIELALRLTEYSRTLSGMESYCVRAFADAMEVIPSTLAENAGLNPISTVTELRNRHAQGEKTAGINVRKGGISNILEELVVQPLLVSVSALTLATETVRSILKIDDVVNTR
UniProt Q9BV29: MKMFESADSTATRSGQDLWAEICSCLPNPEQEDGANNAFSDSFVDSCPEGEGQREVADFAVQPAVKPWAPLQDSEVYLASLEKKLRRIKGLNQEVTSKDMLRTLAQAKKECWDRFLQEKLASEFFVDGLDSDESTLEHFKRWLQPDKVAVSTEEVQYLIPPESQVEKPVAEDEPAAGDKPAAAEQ

[2] = compound: C/C(=N\NC(=O)C1=CC(=CC=C1)S(=O)(=O)N2CCOCC2)/C3=C(C=CC(=C3)Cl)O
Method in brief: as §1

[3] = compound: C1=CC(=C(C=C1Cl)C2=NC3=NC=CN=C3C(=N2)NC4=CC=NC=C4)F
Method in brief: as §1

[4] = compound: C1=CC(=CC=C1C2=NC3=C(N2)C=C(C=C3)C(=O)N)OC4=CC=C(C=C4)Cl
Method in brief: as §1

[5] = compound: C1=CC2=C(C=CC(=C2)/C=C\3/C(=O)NC(=NCC4=CC=CS4)S3)N=C1
Method in brief: as §1

[6] = compound: C1=CC2=NC=CN=C2C=C1/C=C/3\C(=O)NC(=O)S3
Method in brief: as §1

[7] = compound: C1=CC=C(C=C1)C2=NC(=C(N2)C3=CC=NC=C3)C4=CC(=C(C=C4)Cl)O
Method in brief: as §1

[8] = compound: C1=CC=C2C(=C1)C3=NNC4=CC=CC(=C43)C2=O
Method in brief: as §1

[9] = compound: C1CCN(C1)C(=O)NC2=CC=CC(=C2)NC3=NC=C(C(=N3)NCCC4=CN=CN4)Br
Method in brief: as §1

[10] = compound: C1CN(CCC1(CC2=CC=C(C=C2)Cl)N)C3=NC=NC4=C3C=CN4
Method in brief: as §1

[11] = compound: C1COCCN1CCN2C3=CC=CC=C3N=C2NC(=O)C4=CC(=CC=C4)[N+](=O)[O-] [IRAK-1-4 Inhibitor I]
Method in brief: as §1

[12] = compound: C=CC(=O)N1CCC[C@@H](n2nc(-c3ccc(Oc4ccccc4)cc3)c3c(N)ncnc32)C1 [ibrutinib]
Method in brief: as §1

[13] = compound: CC(=O)c1cnc2ccc(-c3cc(Cl)c(O)c(Cl)c3)nc2c1N[C@H]1CC[C@H](CN(C)C)CC1
Method in brief: as §1

[14] = compound: CC(C)(C)Cn1c(N)nc2ccc(-c3[nH]c(C(C)(C)C)nc3-c3ccc(F)cc3)nc21 [ralimetinib]
Method in brief: as §1

[15] = compound: CC(C)(O)CC(=O)NCCn1ccc2ncnc(Nc3ccc(Oc4cccc(C(F)(F)F)c4)c(Cl)c3)c21
Method in brief: as §1

[16] = compound: CC(C)C1=C2N=C(C=C(N2N=C1)NCC3=CC=CC=C3)NCCCCCCN
Method in brief: as §1

[17] = compound: CC(C)C[C@@H](C=O)NC(=O)[C@H](CC(C)C)NC(=O)[C@H](CC(C)C)NC(=O)OCc1ccccc1
Method in brief: as §1

[18] = compound: CC(C)N(C[C@H]1O[C@@H](n2cnc3c(N)ncnc32)[C@H](O)[C@@H]1O)[C@H]1C[C@@H](CCc2nc3cc(C(C)(C)C)ccc3[nH]2)C1 [pinometostat]
Method in brief: as §1

[19] = compound: CC1=C(C(CC(=O)N1)C2=CC=C(C=C2)C(F)(F)F)C(=O)NC3=C(C=C4C(=C3)C=NN4)F
Method in brief: as §1

[20] = compound: CC1=C(C2=C(C=C1)C(=O)C3=CC=CC=C3N2CCCN)C
Method in brief: as §1

Measured: log2 fold change

CASP6 (UniProt P55212)
inactive: [1] -0.002 | [2] 0.066 | [3] 0.052 | [4] 0.046 | [5] -0.062 | [6] -0.092 | [7] -0.018 | [8] -0.024 | [9] -0.062 | [10] 0.062 | [11] 0.035 | [12] 0.027 | [13] 0.044 | [14] 0.003 | [15] -0.019 | [16] 0.073 | [17] -0.028 | [18] -0.018 | [19] 0.063 | [20] -0.002

CD3EAP isoform 2 (UniProt O15446)
inactive: [1] -0.046 | [2] -0.096 | [3] -0.245 | [4] -0.025 | [5] -0.048 | [6] 0.089 | [7] -0.06 | [8] -0.009 | [9] -0.05 | [10] -0.078 | [11] -0.12 | [12] -0.003 | [13] -0.025 | [14] 0.117 | [15] 0.084 | [16] 0.054 | [17] 0.085 | [18] 0.134 | [19] 0.026 | [20] 0.039

CCDC22 (UniProt O60826)
inactive: [1] 0.029 | [2] 0.03 | [3] -0.076 | [4] -0.018 | [5] 0.032 | [6] 0.027 | [7] -0.025 | [8] -0.047 | [9] -0.015 | [10] -0.033 | [11] -0.006 | [12] 0.013 | [13] 0.004 | [14] 0.102 | [15] -0.003 | [16] -0.041 | [17] 0.079 | [18] 0.12 | [19] 0.252 | [20] 0.083

CC2D1A (UniProt Q6P1N0)
inactive: [1] 0.201 | [2] 0.068 | [3] 0.027 | [4] -0.046 | [5] 0.014 | [6] -0.032 | [7] 0.002 | [8] 0.087 | [9] -0.023 | [10] -0.022 | [11] -0.025 | [12] -0.001 | [13] -0.015 | [14] 0.051 | [15] -0.068 | [16] 0 | [17] 0.028 | [18] -0.007 | [19] 0.02 | [20] 0.194

CBWD1 (UniProt Q9BRT8)
inactive: [1] 0.055 | [2] -0.038 | [3] 0.011 | [4] 0.001 | [5] 0.055 | [6] 0.077 | [7] 0.076 | [8] 0.179 | [9] 0.115 | [10] -0.277 | [11] -0.037 | [12] 0.107 | [13] -0.002 | [14] 0.134 | [15] -0.099 | [16] -0.259 | [17] 0.199 | [18] 0.126 | [19] -0.033 | [20] -0.007

CCDC117 (UniProt Q8IWD4)
inactive: [1] -0.076 | [2] -0.049 | [3] -0.016 | [4] -0.022 | [5] 0.017 | [6] 0.005 | [7] -0.068 | [8] -0.03 | [9] 0.037 | [10] -0.037 | [11] 0.018 | [12] -0.006 | [13] -0.06 | [14] -0.16 | [15] 0.001 | [16] -0.034 | [17] 0.179 | [18] 0.063 | [19] 0.077 | [20] -0.089

CDC42 (UniProt P60953)
inactive: [1] -0.159 | [2] 0.072 | [3] 0.095 | [4] 0.046 | [5] -0.153 | [6] -0.059 | [7] 0.083 | [8] -0.02 | [9] -0.04 | [10] 0.052 | [11] 0.095 | [12] 0.123 | [13] 0.068 | [14] 0.025 | [15] -0.006 | [16] 0.153 | [17] -0.099 | [18] -0.11 | [19] 0.085 | [20] 0.011

CDC37 (UniProt Q16543)
inactive: [1] 0.01 | [2] -0.057 | [3] 0.083 | [4] -0.013 | [5] -0.03 | [6] 0.031 | [7] 0.004 | [8] 0.093 | [9] -0.005 | [10] -0.003 | [11] 0.005 | [12] -0.049 | [13] 0.018 | [14] -0.032 | [15] -0.022 | [16] 0.01 | [17] -0.035 | [18] -0.035 | [19] -0.019 | [20] -0.039

CD59 isoform 2 (UniProt P13987)
inactive: [1] -0.029 | [2] -0.049 | [3] -0.061 | [4] -0.013 | [5] -0.048 | [6] 0.012 | [7] 0.081 | [8] -0.049 | [9] 0.02 | [10] -0.023 | [11] -0.018 | [12] 0.06 | [13] 0.015 | [14] 0.112 | [15] 0.208 | [16] 0.07 | [17] -0.001 | [18] 0.021 | [19] 0.008 | [20] 0.065

CCDC88A (UniProt Q3V6T2)
inactive: [1] 0.168 | [2] -0.048 | [3] -0.079 | [4] -0.013 | [5] 0.177 | [6] 0.136 | [7] 0 | [8] -0.032 | [9] -0.055 | [10] -0.067 | [11] -0.051 | [12] -0.227 | [13] -0.152 | [14] 0.094 | [15] -0.016 | [16] -0.201 | [17] 0.088 | [18] 0.076 | [19] 0.241 | [20] 0.023

CARNMT1 (UniProt Q8N4J0)
inactive: [1] 0.025 | [2] 0.014 | [3] -0.007 | [4] 0.025 | [5] 0.121 | [6] 0.024 | [7] 0.007 | [8] 0.033 | [9] -0.02 | [10] 0.018 | [11] 0.022 | [12] 0.006 | [13] -0.054 | [14] -0.023 | [15] -0.063 | [16] -0.036 | [17] -0.02 | [18] -0.016 | [19] -0.059 | [20] 0.045

CAT (UniProt P04040)
inactive: [1] 0.002 | [2] -0.021 | [3] 0.007 | [4] 0 | [5] -0.048 | [6] -0.006 | [7] 0.004 | [8] -0.034 | [9] 0.012 | [10] 0.041 | [11] 0.04 | [12] 0.019 | [13] 0.036 | [14] -0.022 | [15] 0.007 | [16] 0.053 | [17] -0.037 | [18] -0.031 | [19] -0.005 | [20] 0.021

Copied from above (4 entries):
CDC42 (UniProt P60953)
inactive: [1] -0.159 | [2] 0.072 | [3] 0.095 | [4] 0.046 | [5] -0.153 | [6] -0.059 | [7] 0.083 | [8] -0.02 | [9] -0.04 | [10] 0.052 | [11] 0.095 | [12] 0.123 | [13] 0.068 | [14] 0.025 | [15] -0.006 | [16] 0.153 | [17] -0.099 | [18] -0.11 | [19] 0.085 | [20] 0.011

CDC37 (UniProt Q16543)
inactive: [1] 0.01 | [2] -0.057 | [3] 0.083 | [4] -0.013 | [5] -0.03 | [6] 0.031 | [7] 0.004 | [8] 0.093 | [9] -0.005 | [10] -0.003 | [11] 0.005 | [12] -0.049 | [13] 0.018 | [14] -0.032 | [15] -0.022 | [16] 0.01 | [17] -0.035 | [18] -0.035 | [19] -0.019 | [20] -0.039

CD59 isoform 2 (UniProt P13987)
inactive: [1] -0.029 | [2] -0.049 | [3] -0.061 | [4] -0.013 | [5] -0.048 | [6] 0.012 | [7] 0.081 | [8] -0.049 | [9] 0.02 | [10] -0.023 | [11] -0.018 | [12] 0.06 | [13] 0.015 | [14] 0.112 | [15] 0.208 | [16] 0.07 | [17] -0.001 | [18] 0.021 | [19] 0.008 | [20] 0.065

CCDC88A (UniProt Q3V6T2)
inactive: [1] 0.168 | [2] -0.048 | [3] -0.079 | [4] -0.013 | [5] 0.177 | [6] 0.136 | [7] 0 | [8] -0.032 | [9] -0.055 | [10] -0.067 | [11] -0.051 | [12] -0.227 | [13] -0.152 | [14] 0.094 | [15] -0.016 | [16] -0.201 | [17] 0.088 | [18] 0.076 | [19] 0.241 | [20] 0.023

The results go on:

CCT4 (UniProt P50991)
inactive: [1] -0.008 | [2] 0.019 | [3] 0.021 | [4] 0.019 | [5] 0.009 | [6] -0.003 | [7] 0.06 | [8] 0.012 | [9] 0.003 | [10] 0.002 | [11] -0.001 | [12] -0.038 | [13] 0.005 | [14] 0.011 | [15] -0.044 | [16] 0.007 | [17] -0.048 | [18] -0.026 | [19] 0.052 | [20] 0.03

CASC4 (UniProt Q6P4E1)
inactive: [1] 0.123 | [2] -0.111 | [3] 0.001 | [4] 0.007 | [5] 0.083 | [6] 0.03 | [7] -0.077 | [8] -0.01 | [9] 0.025 | [10] 0.045 | [11] -0.004 | [12] 0.005 | [13] -0.01 | [14] 0.005 | [15] 0.027 | [16] 0.01 | [17] 0.017 | [18] -0.011 | [19] -0.011 | [20] -0.025

CCDC32 isoform 2 (UniProt Q9BV29)
inactive: [1] -0.036 | [2] -0.019 | [3] -0.032 | [4] 0.034 | [5] 0.057 | [6] 0.06 | [7] 0.046 | [8] -0.091 | [9] -0.064 | [10] -0.11 | [11] 0.05 | [12] 0.022 | [13] -0.07 | [14] 0.01 | [15] 0 | [16] 0.045 | [17] -0.068 | [18] -0.056 | [19] 0.011 | [20] 0.004

CBFB isoform 2 (UniProt Q13951)
inactive: [1] -0.048 | [2] 0.073 | [3] 0.109 | [4] -0.063 | [5] -0.01 | [6] 0.057 | [7] 0 | [8] -0.038 | [9] 0.057 | [10] -0.076 | [11] -0.018 | [12] -0.043 | [13] 0.058 | [14] -0.081 | [15] 0 | [16] -0.014 | [17] -0.039 | [18] 0.037 | [19] 0.023 | [20] -0.028
